PubChem BioAssay AID1259405 | NCATS – 2018
The deposit covers about 50,000 reagents; below is a part drawn at random. About 4,000 of them (8%) count as active. 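Mouse siRNA library applied to hamster cells; one well for each siRNA.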 The numbers tell different reagents against one gene apart. No sequences are given here.

- Assay: 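Silenced genes that increase secreted GFP made by CHO cells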 (primary screen)
- System: Chinese hamster CHO-K1 ovary cells with stable secreted eGFP expression
- Knock-down reagent: single siRNA against mouse genes, 0.8 pmol siRNA per well (2 µl of 400 nM stock)
- Timing: 3 days
- Read-out: 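Percent of the per-plate non-targeting control median for intracellular GFP per well by laser scanning cytometry and for cell viability by ATP luminescence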
- Direction: GFP, % of control: higher = more GFP per well, higher productivity; viability (ATP), % of control: higher = more viable cells (more ATP)
- Rule for the call: 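a knock-down is called active if GFP reaches 120% or more of non-targeting control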

| GFP, % of control | viability (ATP), % of control | outcome | gene symbol | reagent |
| --- | --- | --- | --- | --- |
| 70 | 35.9 | inactive | Usp21 (ubiquitin specific peptidase 21) | 1 |
| 58.5 | 50.7 | inactive | Usp21 (ubiquitin specific peptidase 21) | 2 |
| 76.1 | 88.7 | inactive | Usp21 (ubiquitin specific peptidase 21) | 3 |
| 64.3 | 60.1 | inactive | Lrrc18 (leucine rich repeat containing 18) | 1 |
| 79.8 | 77.1 | inactive | Lrrc18 (leucine rich repeat containing 18) | 2 |
| 93 | 81.7 | inactive | Lrrc18 (leucine rich repeat containing 18) | 3 |
| 76.4 | 88.6 | inactive | Mtmr12 (myotubularin related protein 12) | 1 |
| 72.2 | 63.5 | inactive | Mtmr12 (myotubularin related protein 12) | 2 |
| 105 | 107 | inactive | Mtmr12 (myotubularin related protein 12) | 3 |
| 110 | 96.6 | inactive | Hao1 (hydroxyacid oxidase 1, liver) | 1 |
| 101 | 96.5 | inactive | Hao1 (hydroxyacid oxidase 1, liver) | 2 |
| 88.5 | 62.2 | inactive | Hao1 (hydroxyacid oxidase 1, liver) | 3 |
| 70.5 | 63.3 | inactive | Gemin7 (gem nuclear organelle associated protein 7) | 1 |
| 31.6 | 45.8 | inactive | Gemin7 (gem nuclear organelle associated protein 7) | 2 |
| 64.5 | 70.5 | inactive | Gemin7 (gem nuclear organelle associated protein 7) | 3 |
| 33.2 | 58.4 | inactive | Ambp (alpha 1 microglobulin/bikunin precursor) | 1 |
| 80.4 | 53.9 | inactive | Ambp (alpha 1 microglobulin/bikunin precursor) | 2 |
| 119 | 108 | inactive | Ambp (alpha 1 microglobulin/bikunin precursor) | 3 |
| 69.8 | 52.1 | inactive | Or2ak6 (olfactory receptor family 2 subfamily AK member 6) | 1 |
| 83.1 | 70 | inactive | Or2ak6 (olfactory receptor family 2 subfamily AK member 6) | 2 |
| 83.2 | 83.9 | inactive | Or2ak6 (olfactory receptor family 2 subfamily AK member 6) | 3 |
| 87.3 | 98 | inactive | Ache (acetylcholinesterase) | 1 |
| 41.9 | 22.1 | inactive | Ache (acetylcholinesterase) | 2 |
| 72.5 | 75.2 | inactive | Ache (acetylcholinesterase) | 3 |
| 54.4 | 66.5 | inactive | Tmem47 (transmembrane protein 47) | 1 |
| 57.9 | 69.9 | inactive | Tmem47 (transmembrane protein 47) | 2 |
| 78.4 | 101 | inactive | Tmem47 (transmembrane protein 47) | 3 |
| 72.3 | 88.3 | inactive | Las1l (LAS1-like (S. cerevisiae)) | 1 |
| 71.6 | 98.1 | inactive | Las1l (LAS1-like (S. cerevisiae)) | 2 |
| 63.2 | 109 | inactive | Las1l (LAS1-like (S. cerevisiae)) | 3 |
| 86.6 | 93.2 | inactive | Slc25a5 | 1 |
| 85.4 | 71.7 | inactive | Slc25a5 | 2 |
| 29.5 | 52.5 | inactive | Slc25a5 | 3 |
| 62.5 | 57.3 | inactive | Dut (deoxyuridine triphosphatase) | 1 |
| 49.9 | 51.9 | inactive | Dut (deoxyuridine triphosphatase) | 2 |
| 74.1 | 88.9 | inactive | Dut (deoxyuridine triphosphatase) | 3 |

Copied from above for reference:
| GFP, % of control | viability (ATP), % of control | outcome | gene symbol | reagent |
| --- | --- | --- | --- | --- |
| 86.6 | 93.2 | inactive | Slc25a5 | 1 |
| 85.4 | 71.7 | inactive | Slc25a5 | 2 |
| 29.5 | 52.5 | inactive | Slc25a5 | 3 |
| 62.5 | 57.3 | inactive | Dut (deoxyuridine triphosphatase) | 1 |
| 49.9 | 51.9 | inactive | Dut (deoxyuridine triphosphatase) | 2 |
